# Measurements published in the supplement of paper PMC12889115.
# This is one part of the list. Values are raw readings; no control value is given beside them.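 In the initial screen, polymyxin B was used at a concentration that permeabilizes Salmonella's outer membrane but not its inner membrane. Maximum growth was set by DMSO wells with or without polymyxin B. Since plates varied, data were ranked per plate, and compounds giving the lowest OD600 advanced as hits.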
# Test system: Salmonella enterica serovar Typhimurium SL1344
# Assay: bacterial growth OD600 after 18 h with compound and polymyxin B; higher = more bacterial growth (less inhibition)
# Conditions: 50 µM, Mueller-Hinton broth
Structure (SMILES),bacterial growth OD600 (polymyxin B 1 µg/mL),bacterial growth OD600 (polymyxin B 0.75 µg/mL)
COc1cccc(-c2noc3c2CN(C(=O)CCc2cnn(C)c2)CC3)c1,0.991,–
Cc1ccoc1C(=O)N1CCC2(CCCN(Cc3cccnc3)C2=O)C1 (stereo not given),0.927,–
COCc1noc(-c2ccc(N3CCCC(CO)C3)nc2)n1 (stereo not given),1.07,–
CSCCC(=O)N1CCC2(CCCN(C)C2=O)C1 (stereo not given),0.942,–
O=C(CCC1CCCN(C(=O)c2cccs2)C1)N1CCN(Cc2ccccc2)CC1 (stereo not given),0.965,–
CN(C(=O)c1cccs1)C(Cc1ccccc1F)C1CCN(Cc2ccc3nsnc3c2)CC1 (stereo not given),–,0.683
CC(c1nccs1)N(C)C(=O)c1coc(COc2ccccc2F)n1 (stereo not given),–,0.849
CC(=O)c1ccc(C(=O)N2CCCC(Nc3ccccc3)C2)s1 (stereo not given),0.825,–
COCc1ccc(C(=O)N2CCCC(C(=O)c3ccc(C(F)(F)F)cc3)C2)o1 (stereo not given),0.504,–
COC(=O)CCNC(=O)c1ccc(OC2CCN(S(C)(=O)=O)CC2)c(Cl)c1,0.976,–
